Data on one molecule can be found in EP3964206A1, “COMPOUNDS FOR THE TREATMENT OF COVID-19” (priority 2020, dated 2022).

The test relates to SARS-CoV-2. Briefly: microbe, parasite or virus in culture. The test is classed as cell-based. The conditions noted are these: Severe acute respiratory syndrome coronavirus 2, 120 h.

Molecules are shown by their SMILES.

The molecule `Nc1ccc(C(=O)Nc2cccc(-c3nc(N4CCOCC4)c4oc5ncccc5c4n3)c2)cn1` [Compound 104, 6-Amino-N-[3-[4-(4-morpholinyl)pyrido[3',2':4,5]furo[3,2-d]pyrimidin-2-yl]phenyl]pyridine-3-carboxamide] displayed a 50% inhibitory concentration (IC50) of 4.73 µM. That is a single-digit micromolar value.
